Measured values: PMC7276988, “Cryo-EM Structure of the Fork Protection Complex Bound to CMG at a Replication Fork” (Molecular Cell, 2020)
No constants are given. Whether binding was seen depends on the method and setting. Some binding calls cover weakened binding; strength is not graded here.

Amino acid sequences for entries named in this document (tags omitted). A change or cut given only in a name is not applied to a line headed by its entry.
UniProt P29469: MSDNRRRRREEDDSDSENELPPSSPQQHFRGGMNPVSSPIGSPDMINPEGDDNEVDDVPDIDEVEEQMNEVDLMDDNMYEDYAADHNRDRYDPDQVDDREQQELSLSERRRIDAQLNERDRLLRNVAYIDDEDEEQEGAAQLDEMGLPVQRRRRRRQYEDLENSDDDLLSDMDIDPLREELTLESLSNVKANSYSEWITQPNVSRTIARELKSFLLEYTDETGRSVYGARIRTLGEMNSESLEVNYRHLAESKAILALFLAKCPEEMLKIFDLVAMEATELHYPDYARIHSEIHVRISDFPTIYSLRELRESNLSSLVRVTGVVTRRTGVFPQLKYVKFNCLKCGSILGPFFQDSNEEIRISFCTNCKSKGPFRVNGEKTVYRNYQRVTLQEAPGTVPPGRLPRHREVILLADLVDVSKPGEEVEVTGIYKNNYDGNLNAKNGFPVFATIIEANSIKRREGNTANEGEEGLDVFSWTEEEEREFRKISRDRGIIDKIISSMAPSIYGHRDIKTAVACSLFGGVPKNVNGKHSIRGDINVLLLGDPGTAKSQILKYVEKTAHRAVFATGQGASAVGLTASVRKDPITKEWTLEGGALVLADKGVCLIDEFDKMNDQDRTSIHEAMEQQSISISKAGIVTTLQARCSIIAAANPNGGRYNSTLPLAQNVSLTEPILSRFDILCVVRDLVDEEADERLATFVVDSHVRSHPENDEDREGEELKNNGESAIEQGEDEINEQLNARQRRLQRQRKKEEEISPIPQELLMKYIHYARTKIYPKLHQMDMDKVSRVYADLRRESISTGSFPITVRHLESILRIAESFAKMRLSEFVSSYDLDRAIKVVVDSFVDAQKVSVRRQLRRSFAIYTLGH
UniProt Q04659: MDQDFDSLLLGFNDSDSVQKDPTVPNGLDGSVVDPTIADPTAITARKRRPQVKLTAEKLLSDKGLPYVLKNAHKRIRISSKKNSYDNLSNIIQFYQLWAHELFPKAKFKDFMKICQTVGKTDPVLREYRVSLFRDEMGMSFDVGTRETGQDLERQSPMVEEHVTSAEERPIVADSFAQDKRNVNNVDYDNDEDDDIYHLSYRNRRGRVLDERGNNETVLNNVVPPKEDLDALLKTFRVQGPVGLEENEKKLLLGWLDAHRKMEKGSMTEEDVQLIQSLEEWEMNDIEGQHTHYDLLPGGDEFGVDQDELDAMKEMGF

Key:
[1] = target: T1, Cdc45-MCM-GINS (CMG) helicase (S. cerevisiae, UniProt P29469 1-868; P24279 1-971; P30665 1-933; P29496 1-775; P53091 1-1017; P38132 …); experiment: co-sedimentation; 10-30% glycerol gradient without cross-linker; 0.5 μM CMG with 1.5 molar excess of fork DNA, Csm3/Tof1 (or mutant), Ctf4 and Mrc1; 500 μM AMP-PNP, 3 mM Mg(OAc)2, 150 mM NaOAc, pH 7.5; 200,000g, 4°C, 2 h; silver-stained SDS-PAGE of fractions; both purified
T1 construct: Mcm2, S. cerevisiae, subunit of MCM in CMG; Mcm3, S. cerevisiae, subunit of MCM in CMG; Mcm4, S. cerevisiae, subunit of MCM in CMG; Mcm5, S. cerevisiae, subunit of MCM in CMG; Mcm6, S. cerevisiae, subunit of MCM in CMG; Mcm7, S. cerevisiae, subunit of MCM in CMG; Cdc45, S. cerevisiae, subunit of CMG; Psf1, S. cerevisiae, subunit of GINS in CMG; Psf2, S. cerevisiae, subunit of GINS in CMG; Psf3, …

[2] = target: T1, Cdc45-MCM-GINS (CMG) helicase; experiment: cryo-EM structure; reconstituted from purified CMG, fork DNA, Csm3/Tof1, Ctf4, Mrc1 with AMP-PNP; glycerol gradient fixation (glutaraldehyde and BS3); both purified
[3] = target: T1, Cdc45-MCM-GINS (CMG) helicase; experiment: cryo-EM structure; co-expressed, co-purified complex, cross-linker omitted from the glycerol gradient; streptavidin-blocked fork DNA added
[4] = target: T1, Cdc45-MCM-GINS (CMG) helicase; experiment: cryo-EM structure; complex of all 15 proteins co-overexpressed in S. cerevisiae, co-purified (anti-FLAG, calmodulin), glycerol gradient fixation with glutaraldehyde

Measured: binding

Csm3/Tof1 heterodimer (from UniProt Q04659 1-317; P53840 1-1238) (complex)
binds: all assays above
